No constants are given. Whether binding was seen depends on the method and setting. Binding seen in cells or lysates may run through a third protein. Where a sequence is shown, tags or fusion partners need not be part of it. Each block holds one molecule with its values, some of them ahead of it.
How the values were obtained:
Experiment in all cases: co-IP
[1] = biological target: T1, GFP-iASPP-SRNN (UniProt Q8WUF5)
T1 sequence: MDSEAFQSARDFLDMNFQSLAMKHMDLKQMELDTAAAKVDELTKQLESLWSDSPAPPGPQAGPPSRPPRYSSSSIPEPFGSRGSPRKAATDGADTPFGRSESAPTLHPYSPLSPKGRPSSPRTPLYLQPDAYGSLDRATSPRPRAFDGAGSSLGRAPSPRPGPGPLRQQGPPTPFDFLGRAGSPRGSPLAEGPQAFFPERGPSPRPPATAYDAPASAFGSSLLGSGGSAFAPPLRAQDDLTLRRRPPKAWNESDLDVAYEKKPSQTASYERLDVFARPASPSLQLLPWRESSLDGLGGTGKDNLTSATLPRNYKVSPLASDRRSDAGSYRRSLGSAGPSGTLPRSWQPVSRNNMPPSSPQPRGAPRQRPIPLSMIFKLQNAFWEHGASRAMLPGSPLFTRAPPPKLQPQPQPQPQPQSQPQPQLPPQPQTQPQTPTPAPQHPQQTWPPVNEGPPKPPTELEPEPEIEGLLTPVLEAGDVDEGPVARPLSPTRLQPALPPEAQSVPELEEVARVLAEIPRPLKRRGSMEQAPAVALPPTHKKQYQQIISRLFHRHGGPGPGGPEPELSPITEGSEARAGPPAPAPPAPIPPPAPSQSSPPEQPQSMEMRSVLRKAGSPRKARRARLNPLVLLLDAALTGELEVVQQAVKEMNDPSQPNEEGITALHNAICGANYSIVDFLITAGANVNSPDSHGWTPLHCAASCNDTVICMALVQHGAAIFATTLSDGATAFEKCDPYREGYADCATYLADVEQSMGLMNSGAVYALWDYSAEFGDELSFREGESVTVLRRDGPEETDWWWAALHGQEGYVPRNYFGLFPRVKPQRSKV

Sequences of proteins named here, by UniProt entry; tags and fusion partners are left off.
UniProt Q15691: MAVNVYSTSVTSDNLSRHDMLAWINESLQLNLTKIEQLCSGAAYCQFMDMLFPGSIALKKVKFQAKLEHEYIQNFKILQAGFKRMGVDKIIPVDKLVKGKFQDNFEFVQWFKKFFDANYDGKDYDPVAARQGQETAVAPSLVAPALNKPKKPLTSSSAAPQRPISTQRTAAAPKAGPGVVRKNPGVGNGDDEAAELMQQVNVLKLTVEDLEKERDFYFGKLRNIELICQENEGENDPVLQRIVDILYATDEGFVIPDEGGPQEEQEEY

[2] = biological target: T2, GFP-iASPP 1-290, Q8WUF5; settings: remark: other sources report otherwise
T2 chain: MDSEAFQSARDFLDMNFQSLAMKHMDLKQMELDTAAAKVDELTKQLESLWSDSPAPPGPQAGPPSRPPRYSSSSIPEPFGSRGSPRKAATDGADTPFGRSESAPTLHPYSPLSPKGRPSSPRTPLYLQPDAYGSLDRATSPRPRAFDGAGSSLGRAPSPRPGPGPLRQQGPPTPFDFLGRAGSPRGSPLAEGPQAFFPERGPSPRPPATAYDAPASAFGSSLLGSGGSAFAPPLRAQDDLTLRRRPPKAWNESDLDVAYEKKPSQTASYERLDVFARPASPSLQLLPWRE

[3] = biological target: T3, GFP-iASPP C-terminal region (Cter, 600-828), Q8WUF5; settings: remark: other sources report otherwise
T3 chain: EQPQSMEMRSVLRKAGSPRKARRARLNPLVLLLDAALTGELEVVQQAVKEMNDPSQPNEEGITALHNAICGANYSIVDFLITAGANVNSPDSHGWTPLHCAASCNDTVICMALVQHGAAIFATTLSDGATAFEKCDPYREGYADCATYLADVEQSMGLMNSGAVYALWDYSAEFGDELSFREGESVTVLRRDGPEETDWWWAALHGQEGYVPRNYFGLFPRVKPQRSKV

binding [1]: no binding
Molecule: Strep-FLAG (SF)-tagged EB1 (from UniProt Q15691 1-268)

binding [2]: no binding
B1: SF-iASPP 600-828, Q8WUF5 600-828 (domain or fragment)
chain: T3 chain

binding [3]: no binding
B2: SF-iASPP 1-290, Q8WUF5 1-290 (domain or fragment)
chain: T2 chain

Source: article doi:10.1101/870998
